Microarray screen: hit calls

Targets, with sequences 5′ to 3′:
PreQ1: PreQ1 riboswitch RNA pseudoknot, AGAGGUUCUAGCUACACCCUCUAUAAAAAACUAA. From B. subtilis. Hit rate about 0.7% of about 24,000 compounds.
TPP: TPP riboswitch RNA three-way junction, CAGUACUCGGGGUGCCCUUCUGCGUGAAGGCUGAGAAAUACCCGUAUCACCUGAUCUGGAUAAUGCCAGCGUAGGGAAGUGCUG. Hit rate about 0.7% of about 24,000 compounds.
SAM-II: SAM-II riboswitch RNA pseudoknot, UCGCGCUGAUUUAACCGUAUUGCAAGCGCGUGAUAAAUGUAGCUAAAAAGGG. Hit rate about 1% of about 21,000 compounds.

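The test is a small-molecule microarray: each compound is printed twice on a reactive slide, and binding shows as fluorescence of the labelled oligonucleotide after washing. The data file lists only calls. An earlier report of the laboratory on the PreQ1, TPP and SAM-II riboswitches (doi:10.1038/s41467-019-09493-3) used 1 µM RNA for 2 h and required a mean Z-score above 3 (spot signal-to-noise against the whole library), a score well above that on a control array, and duplicate spots agreeing (coefficient of variation under 100); it then also set aside compounds that hit other targets, which this list keeps. The cut-offs behind this list may differ. These are primary screening calls, not affinities; a compound without a hit may have attached poorly or may still bind in solution.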
Key: hit = hit, no hit = tested without a hit.
Compounds were drawn at random from those tested, without regard to their results.
A target missing from an entry has no call listed here.

- COc1ccc(-c2nc3nc(C)cc(Nc4cccc(C(C)=O)c4)n3n2)cc1 | PreQ1: no hit; TPP: no hit
- CNC(=O)c1cc2c(s1)CCN(Cc1cc3n(n1)CCNC3)C2 | PreQ1: no hit; TPP: no hit; SAM-II: no hit
- O=C(Cc1ccc(F)c(Cl)c1)N1C[C@@H](CN2CCCCC2)[C@@H](CO)C1 | PreQ1: no hit; TPP: no hit; SAM-II: no hit
- OC1(CN2CCC(Oc3cccc(C(F)(F)F)c3)CC2)CNCCOC1 (stereo not shown) | PreQ1: no hit; TPP: no hit; SAM-II: no hit
- CC1(C)CC(=O)C2=C(C1)OC(N)=C(C#N)C2c1ccccc1 (stereo not shown) | PreQ1: no hit; TPP: no hit; SAM-II: no hit
- CNCc1n[nH]c(=O)n1-c1cc(Cl)ccc1C | PreQ1: no hit; TPP: no hit; SAM-II: no hit
- COc1ccc(C2C([N+](=O)[O-])=C(N)Oc3cc(C)oc(=O)c32)cc1 (stereo not shown) | PreQ1: no hit; TPP: no hit; SAM-II: no hit
- O=C(O)CCCCC1SCC2NC(=O)NC21 (stereo not shown) | PreQ1: no hit; TPP: no hit; SAM-II: no hit
- OCCC1CN(c2ccc3ccccc3n2)CCN1C1CCCCC1 (stereo not shown) | PreQ1: no hit; TPP: no hit; SAM-II: no hit
- O=C(c1cc(CN2CCC(O)CC2)on1)N1CCc2c(Cl)cccc2C1 | PreQ1: no hit; TPP: no hit; SAM-II: no hit
- COc1ccc(-c2c(NCc3ccccc3Cl)c(=O)c2=O)cc1 | PreQ1: no hit; TPP: no hit
- CCC1(C)Cc2c(sc(N)c2C(=O)O)CO1 (stereo not shown) | PreQ1: no hit; TPP: no hit; SAM-II: no hit
- O=C(NC1CCCCC1)c1cc2ccccc2cc1O | PreQ1: no hit; TPP: no hit; SAM-II: no hit
- NCC1CCN(c2cnn(Cc3noc(-c4ccccc4)n3)c(=O)c2)CC1 | PreQ1: no hit; TPP: no hit; SAM-II: no hit
- Cc1ccc(CN(C)CC(=O)N[C@H]2CC[C@H]2NC(C)C)cc1 | PreQ1: no hit; TPP: no hit; SAM-II: no hit
- COCCNCCOc1ccc(C)cc1[N+](=O)[O-].O=C(O)C(=O)O | PreQ1: no hit; TPP: no hit; SAM-II: no hit
- Oc1cc2c(cc1O)C1c3ccc(O)c(O)c3OCC1(O)C2 (stereo not shown) | PreQ1: no hit; TPP: no hit; SAM-II: no hit
- Cc1nn(CCO)cc1CN1CCCC(c2nnc(CN(C)C)n2C)C1 (stereo not shown) | PreQ1: no hit; TPP: no hit; SAM-II: no hit
- Oc1ccc(Cc2ccc(Cl)cc2)c(O)c1 | PreQ1: no hit; TPP: no hit; SAM-II: no hit
- Cc1nc(C)c(-c2csc(Nc3ccc(F)cc3)n2)s1 | PreQ1: no hit; TPP: no hit; SAM-II: no hit
- CCC1=C(C)CN(C(=O)NCCc2ccc(S(=O)(=O)NC(=O)NC3CCC(C)CC3)cc2)C1=O (stereo not shown) | PreQ1: no hit; TPP: no hit; SAM-II: no hit
- CCOc1ccc(S(=O)(=O)c2ccc(C)cc2)c2c1no[n+]2[O-] | PreQ1: no hit; TPP: no hit; SAM-II: no hit
- O=C1C=C(NCc2ccccc2-n2cccc2)C2(CCCCC2)O1 | PreQ1: no hit; TPP: no hit; SAM-II: no hit
- Cc1cc(-c2ccc(CO)cc2)cc2sc(N)nc12 | PreQ1: no hit; TPP: no hit; SAM-II: no hit
- COc1ccc(CCNCc2ccc(C(=O)O)s2)cc1OC | PreQ1: no hit; TPP: no hit
- CCn1cc(CCCN2C(=O)NC3(CCNCC3)C2=O)cn1 | PreQ1: no hit; TPP: no hit; SAM-II: no hit
- Cc1ccc(-c2csc(NCc3ccco3)n2)o1 | PreQ1: no hit; TPP: no hit; SAM-II: no hit
- CCCCc1ccc(Nc2cc(C)nc(C)n2)cc1 | PreQ1: no hit; TPP: no hit
- COc1ccc(-c2cnn3c(N)c(-c4ccc(Cl)cc4)cnc23)cc1OC | PreQ1: no hit; TPP: no hit; SAM-II: no hit
- Cc1ccc(Nc2nc(C)cc(N3CCN(S(=O)(=O)c4cccc(F)c4)CC3)n2)cc1 | PreQ1: no hit; TPP: no hit
- Cc1ccc2cc(Nc3nc(N4CCOCC4)nc(N4CCOCC4)n3)ccc2n1 | PreQ1: no hit; TPP: no hit; SAM-II: no hit
- O=[N+]([O-])c1cc(-c2ccc([As](=O)(O)O)cc2)ccc1[As](=O)(O)O | PreQ1: no hit; TPP: no hit; SAM-II: no hit
- Cc1ccc(-c2nc3ncccn3c2Nc2ccccc2C)o1 | PreQ1: no hit; TPP: no hit; SAM-II: no hit
- O=C1N(CCO)CCCC12CCN(c1nnc(-c3ccccc3)s1)C2 (stereo not shown) | PreQ1: no hit; TPP: no hit; SAM-II: no hit
- CCN(CC)CC(O)Cn1ccc2ccccc21 (stereo not shown) | PreQ1: no hit; TPP: no hit; SAM-II: no hit
- NCCN1C[C@]23CC[C@H](O2)[C@H](C(=O)Nc2cnc4n2CCCC4)[C@@H]3C1=O | PreQ1: no hit; TPP: no hit; SAM-II: no hit
- CCN1c2ccccc2C2=C(C(c3ccc(Br)cc3)C(C#N)=C(N)O2)S1(=O)=O (stereo not shown) | PreQ1: no hit; TPP: no hit
- CS(=O)(=O)c1ccc(-c2cnc(N)cn2)cc1 | PreQ1: no hit; TPP: no hit; SAM-II: no hit
- Cc1ccc(-c2noc(-c3nnn(-c4ccc(C)c(C)c4)c3N)n2)cc1 | PreQ1: no hit; TPP: no hit
- COC(=O)c1n[nH]c2c1CN(c1nc(N)ncc1C)CC2 | PreQ1: no hit; TPP: no hit; SAM-II: no hit
- NC[C@@H]1CCCN2CCCC[C@H]12 | PreQ1: no hit; TPP: no hit; SAM-II: no hit

Repeated from the top, 3 entries:

{"compound": "COc1ccc(-c2nc3nc(C)cc(Nc4cccc(C(C)=O)c4)n3n2)cc1", "PreQ1": "no hit", "TPP": "no hit"}
{"compound": "CNC(=O)c1cc2c(s1)CCN(Cc1cc3n(n1)CCNC3)C2", "PreQ1": "no hit", "TPP": "no hit", "SAM-II": "no hit"}
{"compound": "O=C(Cc1ccc(F)c(Cl)c1)N1C[C@@H](CN2CCCCC2)[C@@H](CO)C1", "PreQ1": "no hit", "TPP": "no hit", "SAM-II": "no hit"}

Data from the ROBIN nucleic acid binder screens, doi:10.1002/anie.202211358.